Assay results: PMC4071220
No constants are given. Whether binding was seen depends on the method and setting. Binding seen in cells or lysates may run through a third protein. Binding calls can cover weak binding; strength is not graded here. Where a sequence is shown, tags or fusion partners need not be part of it.

T1: Flag-Hes-1WT (rat) (UniProt Q04666)
T1 sequence: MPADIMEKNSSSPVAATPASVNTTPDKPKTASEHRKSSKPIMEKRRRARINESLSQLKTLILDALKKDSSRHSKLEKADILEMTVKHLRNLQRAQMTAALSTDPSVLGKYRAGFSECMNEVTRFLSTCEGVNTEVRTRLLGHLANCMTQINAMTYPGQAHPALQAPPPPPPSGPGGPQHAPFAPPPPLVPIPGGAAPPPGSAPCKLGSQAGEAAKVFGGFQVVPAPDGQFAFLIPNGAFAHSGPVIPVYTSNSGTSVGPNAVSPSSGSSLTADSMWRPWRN

T2: Flag-Hes-1 3KR (rat) (UniProt Q04666)
T2 sequence: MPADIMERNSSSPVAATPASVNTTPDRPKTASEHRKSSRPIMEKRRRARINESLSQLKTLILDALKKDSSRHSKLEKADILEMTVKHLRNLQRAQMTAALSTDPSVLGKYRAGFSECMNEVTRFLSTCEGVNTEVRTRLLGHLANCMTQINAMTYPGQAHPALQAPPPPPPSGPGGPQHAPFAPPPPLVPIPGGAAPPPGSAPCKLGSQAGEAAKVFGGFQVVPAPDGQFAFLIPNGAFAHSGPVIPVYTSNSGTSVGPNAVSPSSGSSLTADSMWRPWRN


How the values were obtained:
Flag-Hes-1WT (rat) [1] = target: T1, Flag-Hes-1WT (rat); experiment: co-IP; HEK293T co-transfected with Flag-Hes-1 and EGFP-PIAS1 constructs, lysed 48 h later; anti-Flag M2 affinity gel, 4°C 2 h, washed with PBS; blot for PIAS1; some groups with 0.2 mM H2O2 for 4 h, with CIP (20 U/ml), with Myc-SUMO-1 co-transfected
Flag-Hes-1 3KR (rat) = target: T2, Flag-Hes-1 3KR (rat); experiment: co-IP; HEK293T co-transfected with Flag-Hes-1WT or 3KR, EGFP-PIAS1 and Myc-SUMO-1, with or without H2O2; lysed with RIPA buffer containing 20 mM NEM; anti-Flag IP, blot for PIAS1
Flag-Hes-1WT (rat) [2] = target: T1, Flag-Hes-1WT (rat); experiment: as above
EGFP-PIAS1WT (rat) = experiment: co-IP; HEK293T co-transfected with Flag-Hes-1WT and EGFP-PIAS1WT; reciprocal precipitation with EGFP antibody, 4°C 2 h, washed with PBS

Row | binding (Flag-Hes-1WT (rat) [1]) | binding (Flag-Hes-1 3KR (rat)) | binding (Flag-Hes-1WT (rat) [2]) | binding (EGFP-PIAS1WT (rat)) | Molecule
1 | binds |  |  |  | EGFP-PIAS1S90A (rat)
2 | binds | binds | binds |  | EGFP-PIAS1WT (rat)
3 |  |  |  | binds | Flag-Hes-1WT (protein, UniProt Q04666 1-281) MPADIMEKNSSSPVAATPASVNTTPDKPKTASEHRKSSKPIMEKRRRARINESLSQLKTLILDALKKDSSRHSKLEKADILEMTVKHLRNLQRAQMTAALSTDPSVLGKYRAGFSECMNEVTRFLSTCEGVNTEVRTRLLGHLANCMTQINAMTYPGQAHPALQAPPPPPPSGPGGPQHAPFAPPPPLVPIPGGAAPPPGSAPCKLGSQAGEAAKVFGGFQVVPAPDGQFAFLIPNGAFAHSGPVIPVYTSNSGTSVGPNAVSPSSGSSLTADSMWRPWRN
